The source of these data is PubChem BioAssay AID330 (DTP/NCI, 2004).

The list is a part of this screen's results and no random one: it gathers tests that were run many times, whatever their T/C, doses with no T/C, and many T/C values between a quarter and a half above the control. Other doses and runs of a compound stand elsewhere. T/C gives the treated animals as a percentage of the vehicle group. Some doses have a count of surviving animals in place of a T/C: the source holds a T/C of zero for them, seemingly a mark for toxic or unscored doses. Some survivor counts are full or nearly so, which does not show that the dose was tolerated: the source hardly ever lists a survival T/C far under the control, and the zero likely stands for such cases as well. Counts of survivors are from the toxicity check (mostly the fifth day) where no day follows; animals may have died later. Schedule codes are those of the source, taken here to give the interval after Q, in days (D) or hours (H), and the number of doses after X. Some structures stand for samples that the source files as different forms (salt, stereo form or complex); doses refer to the form tested. Some entries were tested several times; their values stand side by side, smallest first. For survival time, this PubChem deposit counts one and a half times the control or more as active, and values a quarter to a half above the control carry no call in these data; other NCI protocols may use other cut-offs. Some T/C values are followed by the survivors on the day toxicity was checked, most often the fifth; without a count, all were alive then.

In the assay the test system is P388 leukemia ip, CD2F1 mice, survival T/C. In words: NCI In Vivo Anticancer Drug Screen. Data for tumor model P388 Leukemia (intraperitoneal) in CD2F1 (CDF1) mice. Particulars: T/C endpoint: median survival time, higher T/C = longer survival.

For `NC(C/[N+]([O-])=N/O)C(=O)O` (stereo not drawn), the T/C reads like this: (dose: 5.0 mg/kg/injection, schedule: Q01DX009 (ip), vehicle: alkali diluted with saline) 127 % of control; (dose: 8.64 mg/kg/injection, schedule: Q01DX009 (ip), vehicle: alkali diluted with saline) 126 % of control; (dose: 9.38 mg/kg/injection, schedule: Q01DX009 (ip), vehicle: alkali diluted with water) 128 % of control; (dose: 10.0 mg/kg/injection, schedule: Q01DX009 (ip), vehicle: alkali diluted with saline) 140 % of control; (dose: 14.4 mg/kg/injection, schedule: Q01DX009 (ip), vehicle: alkali diluted with saline) 135 % of control; (dose: 15.0 mg/kg/injection, schedule: Q01DX005 (ip), vehicle: alkali diluted with saline) 138 % of control. Moreover, the T/C by setting is: (dose: 15.6 mg/kg/injection, schedule: Q01DX009 (ip), vehicle: saline) 131 % of control; (dose: 15.6 mg/kg/injection, schedule: Q01DX009 (ip), vehicle: water) 140 % of control; (dose: 16.2 mg/kg/injection, schedule: Q01DX009 (ip), vehicle: alkali diluted with saline) 130 and 138 % of control; (dose: 18.75 mg/kg/injection, schedule: Q01DX009 (ip), vehicle: alkali diluted with saline) 146 % of control; (dose: 18.75 mg/kg/injection, schedule: Q01DX009 (ip), vehicle: alkali diluted with water) 142 % of control; (dose: 18.8 mg/kg/injection, schedule: Q01DX009 (ip), vehicle: alkali diluted with saline) 149 % of control. The T/C reads like this: (dose: 19.8 mg/kg/injection, schedule: Q01DX010 (ip), vehicle: alkali diluted with saline) 126 % of control; (dose: 20.0 mg/kg/injection, schedule: Q01DX005 (ip), vehicle: alkali diluted with saline) 133 % of control; (dose: 20.0 mg/kg/injection, schedule: Q01DX009 (ip), vehicle: alkali diluted with saline) 141 % of control; (dose: 24.0 mg/kg/injection, schedule: Q01DX009 (ip), vehicle: alkali diluted with saline) 137 % of control [7 of 8 alive]; (dose: 27.0 mg/kg/injection, schedule: Q01DX009 (ip), vehicle: alkali diluted with saline) 144 % of control; (dose: 28.13 mg/kg/injection, schedule: Q04DX003 (ip), vehicle: alkali diluted with saline) 129 % of control [7 of 8 alive]. The T/C by setting is: (dose: 29.6 mg/kg/injection, schedule: Q01DX010 (ip), vehicle: alkali diluted with saline) 141 % of control; (dose: 30.0 mg/kg/injection, schedule: Q01DX009 (ip), vehicle: Klucel (hydroxypropylcellulose) (HPC)) 137 % of control; (dose: 31.3 mg/kg/injection, schedule: Q01DX005 (ip), vehicle: saline with Tween-80) 128 % of control; (dose: 31.3 mg/kg/injection, schedule: Q01DX009 (ip), vehicle: saline) 136 % of control; (dose: 31.3 mg/kg/injection, schedule: Q01DX009 (ip), vehicle: water) 145 % of control; (dose: 37.5 mg/kg/injection, schedule: Q01DX009 (ip), vehicle: alkali diluted with water) 148 % of control. Besides, the T/C is 142 % of control (dose: 40.0 mg/kg/injection, schedule: Q01DX009 (ip), vehicle: Klucel (hydroxypropylcellulose) (HPC)); 147 % of control (dose: 40.0 mg/kg/injection, schedule: Q01DX009 (ip), vehicle: alkali diluted with saline); 142 % of control (dose: 44.4 mg/kg/injection, schedule: Q01DX010 (ip), vehicle: alkali diluted with saline); 142 % of control (dose: 50.0 mg/kg/injection, schedule: Q01DX009 (ip), vehicle: Klucel (hydroxypropylcellulose) (HPC)); 137 and 142 % of control (dose: 50.0 mg/kg/injection, schedule: Q04DX003 (ip), vehicle: alkali diluted with saline, evaluated on day 30); 148 % of control (dose: 50.0 mg/kg/injection, schedule: Q04DX003 (ip), vehicle: alkali diluted with saline, evaluated on day 45). The T/C was 140 % of control (dose: 50.0 mg/kg/injection, schedule: Q04DX003 (ip), vehicle: alkali diluted with water); 143 % of control (dose: 56.25 mg/kg/injection, schedule: Q04DX003 (ip), vehicle: alkali diluted with saline); 130 % of control (dose: 62.5 mg/kg/injection, schedule: Q01DX005 (ip), vehicle: saline with Tween-80); 146 % of control (dose: 64.8 mg/kg/injection, schedule: Q04DX003 (ip), vehicle: alkali diluted with saline); 135 % of control (dose: 66.7 mg/kg/injection, schedule: Q01DX010 (ip), vehicle: alkali diluted with saline); 90 and 190 % of control (dose: 75.0 mg/kg/injection, schedule: Q01DX009 (ip), vehicle: alkali diluted with saline, evaluated on day 5). Moreover, the T/C is 97 and 178 % of control (dose: 75.0 mg/kg/injection, schedule: Q01DX009 (ip), vehicle: alkali diluted with saline, evaluated on day 30); 140, 148, 152 % of control (dose: 100.0 mg/kg/injection, schedule: Q04DX003 (ip), vehicle: alkali diluted with saline, evaluated on day 30); 151 % of control (dose: 100.0 mg/kg/injection, schedule: Q04DX003 (ip), vehicle: alkali diluted with saline, evaluated on day 45); 140 % of control (dose: 100.0 mg/kg/injection, schedule: Q04DX003 (ip), vehicle: alkali diluted with water); 155, 168, 169 % of control (dose: 200.0 mg/kg/injection, schedule: Q04DX003 (ip), vehicle: alkali diluted with saline, evaluated on day 30); 187 % of control (dose: 200.0 mg/kg/injection, schedule: Q04DX003 (ip), vehicle: alkali diluted with saline, evaluated on day 45). Besides, the T/C reads like this: (dose: 400.0 mg/kg/injection, schedule: Q04DX003 (ip), vehicle: alkali diluted with saline, evaluated on day 30) 175, 180 [6 of 8 alive], 199 % of control; (dose: 400.0 mg/kg/injection, schedule: Q04DX003 (ip), vehicle: alkali diluted with saline, evaluated on day 45) 200 % of control; (dose: 400.0 mg/kg/injection, schedule: Q04DX003 (ip), vehicle: alkali diluted with water) 131 % of control; (dose: 800.0 mg/kg/injection, schedule: Q04DX003 (ip), vehicle: alkali diluted with saline, evaluated on day 30) 120 % of control; (dose: 800.0 mg/kg/injection, schedule: Q04DX003 (ip), vehicle: alkali diluted with saline, evaluated on day 45) 131 % of control. The survivor count is 10 of 10 (dose: 125.0 mg/kg/injection, schedule: Q01DX009 (ip), vehicle: water); 6 of 6 and 8 of 8 (dose: 150.0 mg/kg/injection, schedule: Q01DX009 (ip), vehicle: alkali diluted with saline); 10 of 10 (dose: 250.0 mg/kg/injection, schedule: Q01DX009 (ip), vehicle: saline); 9 of 10 (dose: 250.0 mg/kg/injection, schedule: Q01DX009 (ip), vehicle: water); 5 of 10 (dose: 500.0 mg/kg/injection, schedule: Q01DX009 (ip), vehicle: saline); 10 of 10 (dose: 500.0 mg/kg/injection, schedule: Q01DX009 (ip), vehicle: water). For the same compound, for the setting “dose: 800.0 mg/kg/injection, schedule: Q04DX003 (ip), vehicle: alkali diluted with saline”, the survivor count was 6 of 8 and 6 of 6.
Turning to `CC1(C)C2CCC(C2)C1C(=O)CCN1CCc2ccccc2C1` (stereo not drawn), the survivor count is recorded as 6 of 6 (dose: 50.0 mg/kg/injection, schedule: Q01DX009 (ip), vehicle: saline with Tween-80); 3 of 6 (dose: 100.0 mg/kg/injection, schedule: Q01DX009 (ip), vehicle: saline with Tween-80); 0 of 6 (dose: 200.0 mg/kg/injection, schedule: Q01DX009 (ip), vehicle: saline with Tween-80).
`C=CC(C)NC(=S)NNC(=S)NC` (stereo not drawn): the survivor count (dose: 400.0 mg/kg/injection, schedule: Q01DX005 (ip), vehicle: Klucel (hydroxypropylcellulose) (HPC)) is given as 0 of 5.
